Measured values as given in PubChem BioAssay AID488832 (National Center for Advancing Translational Sciences (NCATS), 2010).
The shares of active, inactive and inconclusive entries below differ from those in the screen. Potencies beside an inconclusive call are fits to weak or partial responses and may not hold up. The source made the active and inactive calls. Calls follow the shape of the dose curve; as a rule, active = well fitted activation curve with a large enough effect; inconclusive = small, poorly fitted or top-dose-only effect; inactive = no such curve, though single readings can be large or run the other way.

Experiment: Confirmation Concentration-Response Assay for Enhancers of SMN2 Splice Variant Expression for Further Probe SAR
Settings: HEK293 SMN2 exon7-luciferase splicing reporter, luminescence, 30-36 h; series mostly up to 46.1 µM; activity, positive = activation: at the top concentration
From the text: NIH Chemical Genomics Center [NCGC] NIH Molecular Libraries Probe Production centers Network [MLPCN] MLPCN Grant: R03 MH084179-01 Assay Submitter (PI): Elliot Androphy NCGC Assay Overview: Spinal muscular atrophy (SMA) is caused by insufficient levels of the survival motor neuron protein SMN. The SMN locus on chromosome 5q13 contains two inverted copies of SMN called SMN1 and SMN2 which are 99% identical at the amino acid level. SMN1 is a fully functional protein and SMN2 skips exon 7 90% of the time. Skipping of exon 7 produces non-functional protein product. 10% of the SMN2 protein includes exon 7 and is fully functional. In the SMA disease state, mutations in the SMN1 locus are the cause of the disease state. Because only 10% of SMN2 is of the fully functional form, it is not sufficient to overcome the deficiency produced by the loss of the SMN1 product. A therapy that either increase the amount of SMN2 product made or to increase the inclusion of exon 7 has been proposed for the treatment of SMA. We have designed an assay to identify small molecules that can increase the amount of functional SMN2 product by appending a luciferase reporter gene after the native SMN2 gene, such that inclusion of exon 7 in the expressed product places the luciferase sequence in frame, thus generating functional luciferase enzyme.
NCGC Assay Protocol Summary: This screen utilizes a luciferase reporter gene assay, combining the promoter with the major portion of the native SMN2 cDNA (exons 1 -7, intron 8 , exon 8 fused to luciferase) stably expressed in HEK293 cells. Compounds that increase luciferase signal presumably enhance expression of the functional SMN2 splice variant. Passaging media contained DMEM w/ glutamax (+phenol red) 10% FCS, 1x pen/strep, 200 ug/ml hygro, 1x sodium pyruvate. Assay media contained DMEM w/ glutamax (-phenol red) 10% FCS, 1x pen strep, 1x pyruvate Sequence, Parameter, Value, Description (1) Cells, 5 uL, 2000 cells/well, 1536 TC treated White solid bottom plate (2) Time, 10-12 hours, 37C 5% CO2 (3) Compound, 23 nl, MLSMR Library (4) Control Compound, 23 nL, Sodium butyrate st 4.5mM (final) conc (5) Time, 30-36 hours, 37C 5% CO2 (6) Reagent, 3 ul, One Glo (TM) from Promega (7) Time, 5-15 minutes, Room temp (8) Detector, Viewlux: luminescent read, 60 second integration, high speed 2x binning Keywords: Spinal muscular atrophy, SMA, SMN2, high throughput screening, MLSMR, MLPCN, NIH Roadmap, qHTS and NCGC

SMILES | Potency | activity, positive = activation
COc1cc(OC)cc(-c2csc(N3CCC(C(N)=O)CC3)n2)c1 | inconclusive: 1.54 µM [activator, full curve, poor fit] | –
CN(C)C(=O)C1CCN(c2nc(-c3ccc(Br)cc3)cs2)CC1 | inconclusive: 24.4 µM [activator, partial curve, poor fit] | –
CCOC(=O)C1CCN(c2ncc(-c3ccc4c(c3)OCCCO4)s2)CC1 | active: 0.0274 µM | –
CC(C)(C)OC(=O)NC1CCN(c2nc(-c3ccc(Br)cc3)cs2)CC1 | – | inactive: -21.7%
NC(=O)C1CCN(c2nc(-c3ccc(-c4ccccc4)cc3)cs2)CC1 | inconclusive: 12.2 µM [activator, full curve, poor fit] | –
N#CC1CCN(c2nc(-c3ccc(Br)cc3)cs2)CC1 | inconclusive: 17.3 µM [activator, partial curve, poor fit] | –
CS(=O)(=O)N1CCN(c2nc(-c3ccc(Br)cc3)cs2)CC1 | – | inactive: -26.1%
NC(=O)C1CCN(c2nnc(-c3ccc(Br)cc3)s2)CC1 | inconclusive: 0.137 µM [activator, full curve] | –
O=C(C1CCN(c2nc(-c3ccc(Br)cc3)cs2)CC1)N1CCNCC1 | inconclusive: 1.54 µM [activator, partial curve, poor fit] | –
CC(=O)C1CCN(c2ncc(-c3ccc4c(c3)OCCCO4)s2)CC1 | – | inactive: -9.36%
N#Cc1ccc(-c2csc(N3CCC(C(N)=O)CC3)n2)cc1 | inconclusive: 8.67 µM [activator, full curve, poor fit] | –
NC(=O)C1CCN(c2ncc(-c3cccc(N4CCCCC4)c3)s2)CC1 | active: 1.09 µM | –
NC(=O)C1CCN(c2nccc(Cl)n2)CC1 | – | inactive: 0%
Cc1ccc(-c2cnc(N3CCC(C(N)=O)CC3)s2)cc1 | active: 0.0688 µM | –
NC(=O)C1CCN(c2nc(-c3cccc(Br)c3)cs2)CC1 | inconclusive: 30.7 µM [activator, partial curve, poor fit] | –
NC(=O)C1CCN(c2ncc(-c3ccc(Br)cc3)s2)CC1 | active: 0.218 µM | –
O=C(c1ccccc1)N1CCN(c2nc(-c3ccc(Br)cc3)cs2)CC1 | – | inactive: -42.8%
O=C(NCCCCc1ccccc1)C1CCN(c2nc(-c3ccc(Br)cc3)cs2)CC1 | – | inactive: 4.35%
CC(C)COc1ccc(-c2csc(N3CCC(C(N)=O)CC3)n2)cc1 | inconclusive: 2.44 µM [activator, full curve, poor fit] | –
NC(=O)C1CCN(c2nc(-c3ccccc3Cl)cs2)CC1 | inconclusive: 5.47 µM [activator, full curve] | –

SMILES | Potency | activity, positive = activation
NC(=O)C1CCN(c2nc(-c3cccc([N+](=O)[O-])c3)cs2)CC1 | inconclusive: 5.47 µM [activator, full curve, poor fit] | –
Cc1ccc(-c2nnc(N3CCC(C(N)=O)CC3)s2)cc1 | inconclusive: 0.154 µM [activator, full curve] | –
NC(=O)C1CCN(c2nc(-c3ccc(OCc4ccccc4)cc3)cs2)CC1 | inconclusive: 15.4 µM [activator, single point] | –
NC(=O)C1CCN(c2ncc(-c3ccc4c(c3)OCCO4)s2)CC1 | active: 0.0867 µM | –
CS(=O)(=O)c1ccc(-c2csc(N3CCC(C(N)=O)CC3)n2)cc1 | – | inactive: -5%
NC(=O)C1CCN(c2nc(-c3ccccc3)cs2)CC1 | active: 3.07 µM | –
COc1cc(-c2csc(N3CCC(C(N)=O)CC3)n2)cc(OC)c1OC | inconclusive: 9.72 µM [activator, full curve, poor fit] | –
CC(=O)Nc1ccc(-c2csc(N3CCC(C(N)=O)CC3)n2)cc1 | inconclusive: 17.3 µM [activator, partial curve, poor fit] | –
NC(=O)C1CCN(c2nc(-c3ccccc3[N+](=O)[O-])cs2)CC1 | active: 15.4 µM | –
Cc1cnc(N2CCC(C(N)=O)CC2)nc1-c1cccc(N(C)C)c1 | – | inactive: 7.67%
NC(=O)C1CCN(c2ncc(-c3ccc4c(c3)OCCCO4)s2)CC1 | active: 0.0307 µM | –
NC(=O)C1CCN(c2nc(-c3ccc([N+](=O)[O-])cc3)cs2)CC1 | active: 5.47 µM | –
O=C(C1CCN(c2nc(-c3ccc(Br)cc3)cs2)CC1)N1CCOCC1 | inconclusive: 34.5 µM [activator, partial curve, poor fit] | –
COc1ccc(-c2csc(N3CCC(C(N)=O)CC3)n2)cc1OC | inconclusive: 9.72 µM [activator, partial curve, poor fit] | –
N#Cc1cccc(-c2csc(N3CCC(C(N)=O)CC3)n2)c1 | – | inactive: 10.7%
NC(=O)C1CCN(c2ncc(Br)cn2)CC1 | – | inactive: 4.35%
NC(=O)C1CCN(c2nc(-c3cccc(F)c3)cs2)CC1 | inconclusive: 10.9 µM [activator, partial curve, poor fit] | –
O=C(c1ccco1)N1CCN(c2nc(-c3ccc(Br)cc3)cs2)CC1 | – | inactive: -35.5%
O=S(=O)(c1ccccc1)N1CCN(c2nc(-c3ccc(Br)cc3)cs2)CC1 | – | inactive: 7.14%
NC(=O)C1CCN(c2nc(-c3cccc(C(F)(F)F)c3)cs2)CC1 | inconclusive: 3.07 µM [activator, partial curve, poor fit] | –

12 structures from above, ordered by molecular weight, rising.
SMILES | Potency | activity, positive = activation
NC(=O)C1CCN(c2nc(-c3ccccc3)cs2)CC1 | active: 3.07 µM | –
Cc1ccc(-c2nnc(N3CCC(C(N)=O)CC3)s2)cc1 | inconclusive: 0.154 µM [activator, full curve] | –
N#Cc1cccc(-c2csc(N3CCC(C(N)=O)CC3)n2)c1 | – | inactive: 10.7%
NC(=O)C1CCN(c2nc(-c3ccccc3[N+](=O)[O-])cs2)CC1 | active: 15.4 µM | –
Cc1cnc(N2CCC(C(N)=O)CC2)nc1-c1cccc(N(C)C)c1 | – | inactive: 7.67%
NC(=O)C1CCN(c2ncc(-c3ccc4c(c3)OCCO4)s2)CC1 | active: 0.0867 µM | –
COc1ccc(-c2csc(N3CCC(C(N)=O)CC3)n2)cc1OC | inconclusive: 9.72 µM [activator, partial curve, poor fit] | –
NC(=O)C1CCN(c2nc(-c3cccc(C(F)(F)F)c3)cs2)CC1 | inconclusive: 3.07 µM [activator, partial curve, poor fit] | –
CS(=O)(=O)c1ccc(-c2csc(N3CCC(C(N)=O)CC3)n2)cc1 | – | inactive: -5%
NC(=O)C1CCN(c2nc(-c3ccc(OCc4ccccc4)cc3)cs2)CC1 | inconclusive: 15.4 µM [activator, single point] | –
O=C(C1CCN(c2nc(-c3ccc(Br)cc3)cs2)CC1)N1CCOCC1 | inconclusive: 34.5 µM [activator, partial curve, poor fit] | –
O=S(=O)(c1ccccc1)N1CCN(c2nc(-c3ccc(Br)cc3)cs2)CC1 | – | inactive: 7.14%
